According to patent EP2319525A1, “Composition for treating insulin resistance” (Universitätsklinikum Hamburg-Eppendorf, priority 2009, dated 2011):
At least one peptide structure holds a part that was inferred or is arguable (an end, a ring closure or a residue).

What was measured:
L6 myotubes [1] = assay: Uptake of H-3-labeled 2-Deoxy-D-glucose in differentiated L6 myotubes, short-term incubation (20 min + 10 min); assay type: cell-based, rodent
Protocol: The data presented below were generated in the rodent myoblast cell line L6 (ATCC #CRL-1458). […] L6 myotubes express both the AT-1 and the AT-2 receptor at relevant levels making these cells an ideal model to test the interference of both receptors with basal and insulin-mediated glucose uptake. L6 myoblasts were maintained as proliferating myoblasts in DMEM high glucose medium supplemented with 10% FCS, 4 mM L-glutamine, 1 mM pyruvate at 37°C in the presence of 5% CO2. The seeding density used for the experiments was 2 x 10^4 cells/cm^2 on 1% gelatincoated dishes. To induce differentiation of myoblasts into myotubes, 90-100% confluent cultures (cultured on standard 6-well plates) were switched to DMEM supplemented with 2% adult horse serum. […] The uptake of H-3-labeled 2-Deoxy-D-glucose (GE Healthcare Biosciences), which cannot undergo further glycolysis, was measured as follows: • H-3-labeled 2-Deoxy-D-glucose uptake in the differentiated myotubes was analysed as described previously ([…] et al., Diabetologia (2005); 48 (1) :132-9) with minor modifications. […] Cell lysates were transferred to scintillation vials for radioactivity counting. Non-specific uptake was determined in the presence of cytochalasin B (10 μmol/L) and was subtracted from all values. […] The uptake of H-3-labeled 2-Deoxy-D-glucose was measured as described in Example 1 above.

L6 myotubes [2] = assay: Long-term (24 hours) stimulation: basal and insulin-mediated uptake of H-3-labeled 2-Deoxy-D-glucose in L6 myotubes; assay type: cell-based, rodent; conditions: angiotensin II 10^-7 mol/L in the presence of losartan 10^-7 mol/L, with or without insulin 1 µg/ml

## CC[C@H](C)[C@H](NC(=O)[C@H](Cc1ccc(O)cc1)NC(=O)[C@@H](NC(=O)[C@H](CCCNC(=N)N)NC(=O)[C@@H](N)CC(=O)O)C(C)C)C(=O)N[C@@H](Cc1c[nH]cn1)C(=O)N1CCC[C@H]1C(=O)N[C@@H](Cc1ccccc1)C(=O)O [angiotensin II]
L6 myotubes [1]; angiotensin II 10^-7 mol/L in the presence of the AT-1 receptor blocker losartan 10^-7 mol/L
  glucose uptake in L6 myotubes: strongly enhanced
L6 myotubes [1]; substance alone, 10^-7 mol/L, L6 myotubes, n=9-12
  uptake of H-3-labeled 2-Deoxy-D-glucose: induced basal uptake
L6 myotubes [2]
  glucose uptake: strongly enhanced
